The values below come from patent publication US12427179B2, “Compositions and methods for diagnosis and treatment of neurodegenerative diseases” (EPITRACKER, INC., priority 2019, dated 2025).

The structures appear in SMILES notation.

The nature of data set [1]: Serum biochemical quantities, wild dolphins compared to Navy dolphins. The data set is classed as in vivo, bottlenose dolphins (Tursiops truncatus). Conditions: wild (Sarasota Bay) over Navy dolphins.
The test system of a further data set is Neuronal iron density. The experiment in a line: Serum biochemical age-group ratio in dolphins with high vs low neuronal iron density. The data set is classed as in vivo, bottlenose dolphins (Tursiops truncatus). The settings on record: for Serum biochemical quantity ratio, High density: high neuronal iron density dolphins; for Serum biochemical quantity ratio, Low density: low neuronal iron density dolphins.

Setting [2] is: 15-to-25-year old over 3-to-15-year old.

As for `CC(O)C(=O)O` (stereo not drawn) [lactate], the “Serum biochemical quantity ratio, Ratio (wild dolphins compared to Navy dolphins)” value (“Serum biochemical quantity ratio, Ratio” below) in data set [1] was determined as 3.13. For the same molecule, in the data set with Neuronal iron density (setting [2]), the “Serum biochemical quantity ratio, High density” value was found to be 0.62 and the “Serum biochemical quantity ratio, Low density” value stood at 2.02.

Regarding `CC(CO)C(=O)O` (stereo not drawn) [3-hydroxyisobutyrate], the “Serum biochemical quantity ratio, Ratio” value in data set [1] was 1.82. Besides, in the data set with Neuronal iron density (setting [2]), the “Serum biochemical quantity ratio, High density” value is 0.86 and the “Serum biochemical quantity ratio, Low density” value was found to be 1.67.

Consider `OC[C@@H](O)[C@@H](O)[C@@H](O)CO` [ribitol], for which the “Serum biochemical quantity ratio, Ratio” value in data set [1] is reported as 1.56. In the data set on Neuronal iron density (*3-15 years old:0-2 years old), the “Serum biochemical quantity ratio, High density” value stood at 0.74 and the “Serum biochemical quantity ratio, Low density” value is 1.71.

For the molecule `O=C(O)c1c[nH]c2ccccc12` [indole-3-carboxylate], the “Serum biochemical quantity ratio, Ratio” value in data set [1] came out at 1.17. For the same molecule, in the data set with Neuronal iron density (*3-15 years old:0-2 years old), the “Serum biochemical quantity ratio, High density” value is given as 0.86 and the “Serum biochemical quantity ratio, Low density” value is on record as 1.53.

With `CC(=O)NCCCCN` [N-acetylputrescine], the “Serum biochemical quantity ratio, Ratio” value in data set [1] was 1.57. In addition, in the data set with Neuronal iron density (*3-15 years old:0-2 years old), the “Serum biochemical quantity ratio, High density” value was found to be 0.76 and the “Serum biochemical quantity ratio, Low density” value came to 1.07.

As to `CCC(C)C(=O)C(=O)O` (stereo not drawn) [3-methyl-2-oxovalerate], the “Serum biochemical quantity ratio, Ratio” value in data set [1] came to 1.26. Also, in the data set with Neuronal iron density (*3-15 years old:0-2 years old), the “Serum biochemical quantity ratio, High density” value stood at 0.68 and the “Serum biochemical quantity ratio, Low density” value is on record as 1.42.

For the molecule `O=C1CC[C@@H](C(=O)O)N1` [5-oxoproline], the “Serum biochemical quantity ratio, Ratio” value in data set [1] amounted to 1.08. For the same molecule, in the data set on Neuronal iron density (setting [2]), the “Serum biochemical quantity ratio, High density” value came out at 0.76 and the “Serum biochemical quantity ratio, Low density” value amounted to 1.41.
